# In the supplement of paper PMC8728848:
# The other results are listed elsewhere or left out.
# B1: GST Gap3 (Streptococcus parasanguinis) (protein)
# chain: MTKQLISEIYWNEIRKGENYLYGSQIKFQEDLVNFYNPQLASGKPIVTFKSRTNYQGDRHSPDLPILIQGNRYLLEYQIDAVPANSFFLQLDFFNRQAEQIESIVLRNSGESFIFPKDTFTYTLTLMSAGCQSVTYQKFMIYDINDEEKKNHIVENRYLRELLPKDLDLVKNLIEYI
# Columns and labels:
# Assay in all cases: glycan array binding signal (z-score within array); higher = stronger binding
# Settings in all cases: glycan notation: IUPAC condensed, linker removed
# [1] = biological target: GalNAc(b1-3)Gal(a1-6)Gal(b1-4)Glc
# Summary of the method: (§1)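 Arrays were curated from the Consortium for Functional Glycomics database, 3228 in total, and kept only where the protein sequence was available. Binding is expressed as a within-array Z-score. This score was averaged across arrays of the same protein sequence at different concentrations or buffers and across linkers, and negative values can be read as non-binding.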
# GalNAc(b1-3)GalNAc = biological target: GalNAc(b1-3)GalNAc
# Summary of the method: as §1
# GalNAc(b1-3)GlcNAc = biological target: GalNAc(b1-3)GlcNAc
# Summary of the method: as §1
# GalNAc(b1-4)Gal(b1-4)Glc = biological target: GalNAc(b1-4)Gal(b1-4)Glc
# Summary of the method: as §1
# GalNAc(b1-4)GlcNAc = biological target: GalNAc(b1-4)GlcNAc
# Summary of the method: as §1
# [2] = biological target: GalNAc(b1-4)GlcNAc(b1-2)Man
# Summary of the method: as §1
# [3] = biological target: GalNAc(b1-4)GlcNAc(b1-2)Man(a1-3)[GalNAc(b1-4)GlcNAc(b1-2)Man(a1-6)]Man(b1-4)GlcNAc(b1-4)GlcNAc
# Summary of the method: as §1
# [4] = biological target: GalNAc(b1-4)GlcNAc(b1-3)GalNAc(b1-4)GlcNAc
# Summary of the method: as §1
# GalNAc(b1-4)GlcNAc6S = biological target: GalNAc(b1-4)GlcNAc6S
# Summary of the method: as §1
# GalNAc(b1-6)GalNAc = biological target: GalNAc(b1-6)GalNAc
# Summary of the method: as §1
# GalNAc3S(b1-4)GlcNAc = biological target: GalNAc3S(b1-4)GlcNAc
# Summary of the method: as §1
# GalNAc3S(b1-4)GlcNAc3S = biological target: GalNAc3S(b1-4)GlcNAc3S
# Summary of the method: as §1
# [5] = biological target: GalNAc3S(b1-4)[Fuc(a1-3)]GlcNAc
# Summary of the method: as §1
# GalNAc4S6S(b1-4)GlcNAc = biological target: GalNAc4S6S(b1-4)GlcNAc
# Summary of the method: as §1
# GalNAc6S(b1-4)GlcNAc = biological target: GalNAc6S(b1-4)GlcNAc
# Summary of the method: as §1
# Glc(a1-4)Glc = biological target: Glc(a1-4)Glc
# Summary of the method: as §1
# [6] = biological target: Glc(a1-4)Glc(a1-4)Glc(a1-4)Glc
# Summary of the method: as §1
# Glc(a1-6)Glc(a1-6)Glc = biological target: Glc(a1-6)Glc(a1-6)Glc
# Summary of the method: as §1
# [7] = biological target: Glc(a1-6)Glc(a1-6)Glc(a1-6)Glc
# Summary of the method: as §1
# Glc(b1-4)Glc = biological target: Glc(b1-4)Glc
# Summary of the method: as §1
# Glc(b1-6)Glc = biological target: Glc(b1-6)Glc
# Summary of the method: as §1
# GlcA(b1-3)Gal = biological target: GlcA(b1-3)Gal
# Summary of the method: as §1
# GlcA(b1-3)GlcNAc = biological target: GlcA(b1-3)GlcNAc
# Summary of the method: as §1
# GlcA(b1-6)Gal = biological target: GlcA(b1-6)Gal
# Summary of the method: as §1
# [8] = biological target: GlcA3S(b1-3)Gal(b1-4)GlcNAc(b1-2)Man
# Summary of the method: as §1
# [9] = biological target: GlcA3S(b1-3)Gal(b1-4)GlcNAc(b1-3)Gal(b1-4)Glc
# Summary of the method: as §1
# [10] = biological target: GlcNAc(a1-3)Gal(b1-4)GlcNAc
# Summary of the method: as §1
# [11] = biological target: GlcNAc(a1-4)Gal(b1-3)GlcNAc
# Summary of the method: as §1
# [12] = biological target: GlcNAc(a1-4)Gal(b1-4)GalNAc
# Summary of the method: as §1
# [13] = biological target: GlcNAc(a1-4)Gal(b1-4)GlcNAc
# Summary of the method: as §1
# [14] = biological target: GlcNAc(a1-4)Gal(b1-4)GlcNAc(b1-3)Gal(b1-4)Glc
# Summary of the method: as §1
# [15] = biological target: GlcNAc(a1-4)Gal(b1-4)GlcNAc(b1-3)Gal(b1-4)GlcNAc
# Summary of the method: as §1
# [16] = biological target: GlcNAc(a1-4)Gal(b1-4)GlcNAc(b1-3)Gal(b1-4)GlcNAc(b1-3)Gal(b1-4)GlcNAc
# Summary of the method: as §1
# [17] = biological target: GlcNAc(a1-4)Gal(b1-4)GlcNAc(b1-3)Gal(b1-4)[Fuc(a1-3)]GlcNAc(b1-3)Gal(b1-4)[Fuc(a1-3)]GlcNAc
# Summary of the method: as §1
# [18] = biological target: GlcNAc(a1-6)Gal(b1-4)GlcNAc
# Summary of the method: as §1
# [19] = biological target: GlcNAc(b1-2)Gal(b1-3)GalNAc
# Summary of the method: as §1
# [20] = biological target: GlcNAc(b1-2)Man(a1-3)[GlcNAc(b1-2)Man(a1-6)]Man(b1-4)GlcNAc(b1-4)GlcNAc
# Summary of the method: as §1
# [21] = biological target: GlcNAc(b1-2)Man(a1-3)[GlcNAc(b1-2)Man(a1-6)]Man(b1-4)GlcNAc(b1-4)[Fuc(a1-6)]GlcNAc
# Summary of the method: as §1
# [22] = biological target: GlcNAc(b1-2)Man(a1-3)[GlcNAc(b1-4)][GlcNAc(b1-2)Man(a1-6)]Man(b1-4)GlcNAc(b1-4)GlcNAc
# Summary of the method: as §1
# [23] = biological target: GlcNAc(b1-2)Man(a1-3)[GlcNAc(b1-4)][GlcNAc(b1-2)Man(a1-6)]Man(b1-4)GlcNAc(b1-4)[Fuc(a1-6)]GlcNAc
# Summary of the method: as §1
# [24] = biological target: GlcNAc(b1-2)[GlcNAc(b1-4)]Man(a1-3)[GlcNAc(b1-2)Man(a1-6)]Man(b1-4)GlcNAc(b1-4)GlcNAc
# Summary of the method: as §1
# [25] = biological target: GlcNAc(b1-2)[GlcNAc(b1-4)]Man(a1-3)[GlcNAc(b1-4)][GlcNAc(b1-2)Man(a1-6)]Man(b1-4)GlcNAc(b1-4)GlcNAc
# Summary of the method: as §1
# [26] = biological target: GlcNAc(b1-2)[GlcNAc(b1-4)]Man(a1-3)[GlcNAc(b1-4)][GlcNAc(b1-2)[GlcNAc(b1-6)]Man(a1-6)]Man(b1-4)GlcNAc(b1-4)GlcNAc
# Summary of the method: as §1
# [27] = biological target: GlcNAc(b1-2)[GlcNAc(b1-4)]Man(a1-3)[GlcNAc(b1-4)][GlcNAc(b1-2)[GlcNAc(b1-6)]Man(a1-6)]Man(b1-4)GlcNAc(b1-4)[Fuc(a1-6)]GlcNAc
# Summary of the method: as §1
# [28] = biological target: GlcNAc(b1-2)[GlcNAc(b1-6)]Man(a1-6)[GlcNAc(b1-2)Man(a1-3)]Man(b1-4)GlcNAc(b1-4)GlcNAc
# Summary of the method: as §1
binder,measurement,setting,value
B1,glycan array binding signal (z-score),[1],0.006
same,glycan array binding signal (z-score),GalNAc(b1-3)GalNAc,-0.404
same,glycan array binding signal (z-score),GalNAc(b1-3)GlcNAc,-0.581
same,glycan array binding signal (z-score),GalNAc(b1-4)Gal(b1-4)Glc,-0.498
same,glycan array binding signal (z-score),GalNAc(b1-4)GlcNAc,0.123
same,glycan array binding signal (z-score),[2],-0.553
same,glycan array binding signal (z-score),[3],0.051
same,glycan array binding signal (z-score),[4],-0.032
same,glycan array binding signal (z-score),GalNAc(b1-4)GlcNAc6S,1.03
same,glycan array binding signal (z-score),GalNAc(b1-6)GalNAc,-0.263
same,glycan array binding signal (z-score),GalNAc3S(b1-4)GlcNAc,-0.688
same,glycan array binding signal (z-score),GalNAc3S(b1-4)GlcNAc3S,-0.214
same,glycan array binding signal (z-score),[5],0.824
same,glycan array binding signal (z-score),GalNAc4S6S(b1-4)GlcNAc,-0.267
same,glycan array binding signal (z-score),GalNAc6S(b1-4)GlcNAc,0.428
same,glycan array binding signal (z-score),Glc(a1-4)Glc,3.14
same,glycan array binding signal (z-score),[6],-0.61
same,glycan array binding signal (z-score),Glc(a1-6)Glc(a1-6)Glc,0.005
same,glycan array binding signal (z-score),[7],0.214
same,glycan array binding signal (z-score),Glc(b1-4)Glc,-0.381
same,glycan array binding signal (z-score),Glc(b1-6)Glc,0.135
same,glycan array binding signal (z-score),GlcA(b1-3)Gal,-0.077
same,glycan array binding signal (z-score),GlcA(b1-3)GlcNAc,1.05
same,glycan array binding signal (z-score),GlcA(b1-6)Gal,0.658
same,glycan array binding signal (z-score),[8],-0.249
same,glycan array binding signal (z-score),[9],1.95
same,glycan array binding signal (z-score),[10],-0.406
same,glycan array binding signal (z-score),[11],-0.334
same,glycan array binding signal (z-score),[12],0.129
same,glycan array binding signal (z-score),[13],-0.311
same,glycan array binding signal (z-score),[14],-0.26
same,glycan array binding signal (z-score),[15],0.075
same,glycan array binding signal (z-score),[16],-0.302
same,glycan array binding signal (z-score),[17],2.24
same,glycan array binding signal (z-score),[18],0.544
same,glycan array binding signal (z-score),[19],-0.224
same,glycan array binding signal (z-score),[20],-0.297
same,glycan array binding signal (z-score),[21],0.521
same,glycan array binding signal (z-score),[22],-0.45
same,glycan array binding signal (z-score),[23],-0.495
same,glycan array binding signal (z-score),[24],-0.411
same,glycan array binding signal (z-score),[25],0.326
same,glycan array binding signal (z-score),[26],-0.484
same,glycan array binding signal (z-score),[27],-0.513
same,glycan array binding signal (z-score),[28],-0.202

# Laid out differently: entries from further up
binder | measurement | setting | value
B1 | glycan array binding signal (z-score) | [11] | -0.334
same | glycan array binding signal (z-score) | [12] | 0.129
same | glycan array binding signal (z-score) | [13] | -0.311
same | glycan array binding signal (z-score) | [14] | -0.26
